The other results are listed elsewhere or left out.
What follows are targets tested with COc1ccc(Cn2ccc3cc(C)c(C(=O)NO)cc32)cc1 (assay: dose-dependent thermal stabilisation call (2D-TPP, DLPTP, 10% FDR) (binary (1 = stabilised)); higher = stabilised by the compound). Conditions: system: HL-60 intact cells; concentration range 0.04-10 µM.
Protocol: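 2D thermal proteome profiling in intact HL-60 cells treated with BRD-3811 (0, 0.04, 0.29, 2, 10 uM) for 90 min at 37 C, then heated 3 min at one of 12 temperatures (42-63.9 C). Soluble protein was quantified by TMT10 MS. The value is the DLPTP call of the paper: dose-dependent thermal stabilisation over all temperatures at 10% FDR (F-test of a dose-response against a flat model); one experiment, one call per tested protein.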

Chains of the proteins cited; added tags and fusions are not shown. Lines headed by an entry give the natural chain unless they say otherwise; changes in a name come on top.
UniProt Q5MIZ7: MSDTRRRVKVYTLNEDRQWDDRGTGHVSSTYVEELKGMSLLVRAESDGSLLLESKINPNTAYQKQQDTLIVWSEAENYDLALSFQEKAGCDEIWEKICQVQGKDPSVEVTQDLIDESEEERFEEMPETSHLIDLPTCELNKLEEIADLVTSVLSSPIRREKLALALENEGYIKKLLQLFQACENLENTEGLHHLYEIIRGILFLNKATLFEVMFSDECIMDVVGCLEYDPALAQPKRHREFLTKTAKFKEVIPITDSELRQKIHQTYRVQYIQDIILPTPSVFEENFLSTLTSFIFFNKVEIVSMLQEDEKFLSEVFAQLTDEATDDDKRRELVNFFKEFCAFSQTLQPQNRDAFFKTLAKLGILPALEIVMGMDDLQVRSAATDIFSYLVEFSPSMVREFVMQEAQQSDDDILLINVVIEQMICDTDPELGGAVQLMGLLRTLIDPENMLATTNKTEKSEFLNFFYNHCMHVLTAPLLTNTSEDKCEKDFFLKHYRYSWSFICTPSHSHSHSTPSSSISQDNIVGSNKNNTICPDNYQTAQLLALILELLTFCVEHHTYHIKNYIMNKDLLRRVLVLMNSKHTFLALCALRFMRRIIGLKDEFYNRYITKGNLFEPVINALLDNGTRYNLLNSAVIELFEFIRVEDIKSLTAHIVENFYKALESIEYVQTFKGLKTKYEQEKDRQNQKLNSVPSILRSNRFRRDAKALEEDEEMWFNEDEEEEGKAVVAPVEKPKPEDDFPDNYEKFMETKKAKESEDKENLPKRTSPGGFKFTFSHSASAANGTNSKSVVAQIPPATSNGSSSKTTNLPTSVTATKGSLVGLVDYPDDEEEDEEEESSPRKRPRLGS
UniProt Q9BWM7: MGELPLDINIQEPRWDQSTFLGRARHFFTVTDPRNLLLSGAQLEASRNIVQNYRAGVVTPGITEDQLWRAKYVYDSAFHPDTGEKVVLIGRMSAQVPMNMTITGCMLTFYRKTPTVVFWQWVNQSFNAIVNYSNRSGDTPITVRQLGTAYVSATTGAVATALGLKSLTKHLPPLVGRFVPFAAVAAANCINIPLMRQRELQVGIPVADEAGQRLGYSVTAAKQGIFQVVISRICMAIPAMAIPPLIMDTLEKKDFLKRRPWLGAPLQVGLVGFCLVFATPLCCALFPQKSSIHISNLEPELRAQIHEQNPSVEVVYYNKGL
UniProt Q7Z614: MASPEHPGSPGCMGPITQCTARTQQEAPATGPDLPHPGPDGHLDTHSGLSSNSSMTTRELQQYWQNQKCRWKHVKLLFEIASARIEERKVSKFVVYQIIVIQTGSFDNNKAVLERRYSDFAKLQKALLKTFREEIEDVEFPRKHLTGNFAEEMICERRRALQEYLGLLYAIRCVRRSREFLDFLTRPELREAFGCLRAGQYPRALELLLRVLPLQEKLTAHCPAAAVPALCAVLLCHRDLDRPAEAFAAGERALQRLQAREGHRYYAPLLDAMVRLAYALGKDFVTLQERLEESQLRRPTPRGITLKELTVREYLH
UniProt O95295: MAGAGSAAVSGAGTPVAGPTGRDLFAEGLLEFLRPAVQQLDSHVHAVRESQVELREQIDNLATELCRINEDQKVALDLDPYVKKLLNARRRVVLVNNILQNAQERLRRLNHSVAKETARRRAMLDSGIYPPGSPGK
UniProt Q13596, whole entry: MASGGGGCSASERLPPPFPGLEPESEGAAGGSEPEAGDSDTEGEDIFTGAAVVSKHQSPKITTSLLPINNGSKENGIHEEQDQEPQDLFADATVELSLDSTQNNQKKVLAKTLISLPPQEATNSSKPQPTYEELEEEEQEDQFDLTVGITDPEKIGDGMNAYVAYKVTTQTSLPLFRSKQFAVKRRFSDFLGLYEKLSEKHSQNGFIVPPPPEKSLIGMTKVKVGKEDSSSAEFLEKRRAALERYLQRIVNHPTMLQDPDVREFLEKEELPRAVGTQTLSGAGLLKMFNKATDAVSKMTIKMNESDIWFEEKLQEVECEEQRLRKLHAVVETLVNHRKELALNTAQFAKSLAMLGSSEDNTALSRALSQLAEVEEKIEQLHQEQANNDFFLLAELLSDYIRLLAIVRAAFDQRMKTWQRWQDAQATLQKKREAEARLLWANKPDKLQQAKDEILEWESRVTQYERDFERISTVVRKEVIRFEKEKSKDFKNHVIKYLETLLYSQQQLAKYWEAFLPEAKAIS
UniProt Q9Y289: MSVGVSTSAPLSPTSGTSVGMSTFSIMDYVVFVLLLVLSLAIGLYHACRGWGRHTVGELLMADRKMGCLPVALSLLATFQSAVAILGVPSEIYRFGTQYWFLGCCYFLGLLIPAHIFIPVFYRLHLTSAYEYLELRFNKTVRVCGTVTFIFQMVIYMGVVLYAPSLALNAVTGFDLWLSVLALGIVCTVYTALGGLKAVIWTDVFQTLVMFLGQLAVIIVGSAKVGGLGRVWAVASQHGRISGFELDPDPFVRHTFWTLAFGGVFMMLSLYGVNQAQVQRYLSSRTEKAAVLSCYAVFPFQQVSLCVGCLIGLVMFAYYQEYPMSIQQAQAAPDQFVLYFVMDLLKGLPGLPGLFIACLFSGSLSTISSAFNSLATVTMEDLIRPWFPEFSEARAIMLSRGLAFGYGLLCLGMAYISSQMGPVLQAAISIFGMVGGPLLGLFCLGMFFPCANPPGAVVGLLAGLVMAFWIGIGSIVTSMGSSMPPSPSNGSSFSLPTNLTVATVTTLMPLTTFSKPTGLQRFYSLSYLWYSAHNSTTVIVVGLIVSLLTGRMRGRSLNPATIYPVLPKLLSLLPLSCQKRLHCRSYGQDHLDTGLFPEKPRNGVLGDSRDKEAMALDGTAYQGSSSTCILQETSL
UniProt P09661: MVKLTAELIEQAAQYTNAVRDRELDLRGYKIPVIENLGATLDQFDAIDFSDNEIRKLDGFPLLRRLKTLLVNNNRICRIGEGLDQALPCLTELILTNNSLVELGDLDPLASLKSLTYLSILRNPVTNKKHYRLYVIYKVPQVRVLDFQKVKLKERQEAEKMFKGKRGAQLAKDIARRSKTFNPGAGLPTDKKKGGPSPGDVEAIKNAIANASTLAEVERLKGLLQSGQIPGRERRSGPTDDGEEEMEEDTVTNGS
UniProt Q8ND83, whole entry: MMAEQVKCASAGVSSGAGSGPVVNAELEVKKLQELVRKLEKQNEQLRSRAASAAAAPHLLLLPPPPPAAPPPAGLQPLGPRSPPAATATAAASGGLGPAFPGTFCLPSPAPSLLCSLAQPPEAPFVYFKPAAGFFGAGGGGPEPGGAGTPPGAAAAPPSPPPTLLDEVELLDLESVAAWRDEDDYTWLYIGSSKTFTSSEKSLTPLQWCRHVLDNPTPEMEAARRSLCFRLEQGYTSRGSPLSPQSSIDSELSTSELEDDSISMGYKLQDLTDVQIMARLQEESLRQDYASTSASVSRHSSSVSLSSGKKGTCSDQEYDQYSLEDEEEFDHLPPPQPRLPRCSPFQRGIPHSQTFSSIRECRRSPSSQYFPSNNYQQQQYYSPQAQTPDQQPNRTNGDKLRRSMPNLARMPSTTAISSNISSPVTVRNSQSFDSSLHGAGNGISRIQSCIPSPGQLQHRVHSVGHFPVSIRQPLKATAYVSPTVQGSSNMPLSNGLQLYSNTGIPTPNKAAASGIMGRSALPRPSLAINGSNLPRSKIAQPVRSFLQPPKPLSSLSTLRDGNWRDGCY
UniProt P41440: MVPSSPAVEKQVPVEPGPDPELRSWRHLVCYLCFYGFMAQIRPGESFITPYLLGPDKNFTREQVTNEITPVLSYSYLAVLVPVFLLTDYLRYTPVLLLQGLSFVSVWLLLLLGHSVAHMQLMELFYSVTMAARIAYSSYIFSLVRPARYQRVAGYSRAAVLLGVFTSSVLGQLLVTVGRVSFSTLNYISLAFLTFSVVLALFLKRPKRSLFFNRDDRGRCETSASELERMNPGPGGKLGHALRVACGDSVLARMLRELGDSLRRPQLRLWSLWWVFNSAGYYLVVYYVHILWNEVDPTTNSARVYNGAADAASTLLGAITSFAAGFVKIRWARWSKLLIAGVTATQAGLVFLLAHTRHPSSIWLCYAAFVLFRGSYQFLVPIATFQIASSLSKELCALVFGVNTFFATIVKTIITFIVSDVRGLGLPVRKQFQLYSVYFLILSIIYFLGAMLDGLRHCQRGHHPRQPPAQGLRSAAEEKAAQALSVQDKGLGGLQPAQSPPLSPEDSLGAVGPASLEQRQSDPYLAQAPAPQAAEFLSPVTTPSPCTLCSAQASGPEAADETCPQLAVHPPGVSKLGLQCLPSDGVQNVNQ
UniProt Q07955, whole entry: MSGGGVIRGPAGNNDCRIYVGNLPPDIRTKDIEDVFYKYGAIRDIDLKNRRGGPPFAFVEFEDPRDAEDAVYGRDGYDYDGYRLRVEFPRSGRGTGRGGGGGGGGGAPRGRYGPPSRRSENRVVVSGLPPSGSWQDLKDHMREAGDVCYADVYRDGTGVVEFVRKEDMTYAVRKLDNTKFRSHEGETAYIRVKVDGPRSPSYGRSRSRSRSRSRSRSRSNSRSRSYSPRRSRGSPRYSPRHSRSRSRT
UniProt Q02978: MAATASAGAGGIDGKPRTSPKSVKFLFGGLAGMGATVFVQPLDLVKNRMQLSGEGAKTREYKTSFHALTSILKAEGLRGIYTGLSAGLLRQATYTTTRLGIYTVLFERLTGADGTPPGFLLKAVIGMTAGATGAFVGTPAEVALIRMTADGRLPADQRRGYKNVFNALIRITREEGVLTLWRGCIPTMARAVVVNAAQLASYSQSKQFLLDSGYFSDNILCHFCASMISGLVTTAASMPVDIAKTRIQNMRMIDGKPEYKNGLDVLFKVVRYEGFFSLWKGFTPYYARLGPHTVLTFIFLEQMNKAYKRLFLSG
UniProt Q96JT2: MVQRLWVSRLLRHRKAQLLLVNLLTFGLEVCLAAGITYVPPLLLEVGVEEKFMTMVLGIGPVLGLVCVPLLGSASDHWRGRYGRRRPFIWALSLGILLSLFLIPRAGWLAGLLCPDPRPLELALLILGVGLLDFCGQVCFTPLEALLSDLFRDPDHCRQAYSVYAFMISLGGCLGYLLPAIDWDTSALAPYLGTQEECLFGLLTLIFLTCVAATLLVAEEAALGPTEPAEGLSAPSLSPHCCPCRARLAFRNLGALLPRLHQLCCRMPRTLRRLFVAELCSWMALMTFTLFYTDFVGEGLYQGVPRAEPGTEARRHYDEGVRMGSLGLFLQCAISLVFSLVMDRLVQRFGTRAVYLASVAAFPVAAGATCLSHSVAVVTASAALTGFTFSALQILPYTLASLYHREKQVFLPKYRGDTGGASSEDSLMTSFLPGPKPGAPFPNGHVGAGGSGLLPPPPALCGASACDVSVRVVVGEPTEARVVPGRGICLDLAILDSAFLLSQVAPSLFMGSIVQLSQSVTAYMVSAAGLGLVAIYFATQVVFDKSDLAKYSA
UniProt P09012, whole entry: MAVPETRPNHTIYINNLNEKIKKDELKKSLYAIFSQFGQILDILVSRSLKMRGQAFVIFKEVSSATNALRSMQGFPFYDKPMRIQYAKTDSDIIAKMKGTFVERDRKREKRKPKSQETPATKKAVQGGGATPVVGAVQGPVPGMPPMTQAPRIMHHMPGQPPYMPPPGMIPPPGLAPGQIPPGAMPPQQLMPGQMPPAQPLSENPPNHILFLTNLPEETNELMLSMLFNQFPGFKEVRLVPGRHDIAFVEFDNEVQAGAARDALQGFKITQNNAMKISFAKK
UniProt Q13243: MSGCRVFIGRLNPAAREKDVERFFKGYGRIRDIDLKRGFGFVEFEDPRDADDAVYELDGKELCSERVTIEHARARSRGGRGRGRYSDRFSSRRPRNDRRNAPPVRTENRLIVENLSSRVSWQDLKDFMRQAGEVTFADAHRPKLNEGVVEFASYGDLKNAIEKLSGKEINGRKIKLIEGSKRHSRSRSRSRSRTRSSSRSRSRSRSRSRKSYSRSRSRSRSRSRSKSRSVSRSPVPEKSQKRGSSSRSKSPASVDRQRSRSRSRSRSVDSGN
UniProt Q08357: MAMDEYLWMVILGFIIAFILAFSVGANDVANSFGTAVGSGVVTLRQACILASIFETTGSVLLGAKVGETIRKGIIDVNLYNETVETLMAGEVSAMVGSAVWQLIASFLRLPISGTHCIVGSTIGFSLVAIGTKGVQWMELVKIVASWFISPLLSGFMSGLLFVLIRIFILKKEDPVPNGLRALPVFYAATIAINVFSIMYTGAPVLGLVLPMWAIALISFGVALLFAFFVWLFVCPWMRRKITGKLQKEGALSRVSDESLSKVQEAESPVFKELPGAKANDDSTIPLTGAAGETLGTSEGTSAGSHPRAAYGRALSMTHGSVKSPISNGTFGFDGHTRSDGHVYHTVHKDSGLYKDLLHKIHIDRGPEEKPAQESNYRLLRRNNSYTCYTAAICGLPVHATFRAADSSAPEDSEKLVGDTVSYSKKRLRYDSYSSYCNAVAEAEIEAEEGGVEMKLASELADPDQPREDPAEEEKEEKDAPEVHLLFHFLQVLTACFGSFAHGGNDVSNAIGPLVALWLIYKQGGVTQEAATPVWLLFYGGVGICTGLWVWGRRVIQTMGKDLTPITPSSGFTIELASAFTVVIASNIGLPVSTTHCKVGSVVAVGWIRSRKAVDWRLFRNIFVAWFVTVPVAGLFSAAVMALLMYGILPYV

| Target | dose-dependent thermal stabilisation call |
| --- | --- |
| SMEK2 (UniProt Q5MIZ7) | inactive: 0 |
| SFXN3 (UniProt Q9BWM7) | inactive: 0 |
| SLC1A5 (UniProt Q15758) | inactive: 0 |
| SNX20 (UniProt Q7Z614) | inactive: 0 |
| SNAPIN (UniProt O95295) | inactive: 0 |
| SNX1 (UniProt Q13596) | inactive: 0 |
| SMARCD1 (UniProt Q96GM5) | inactive: 0 |
| SMG6 (UniProt Q86US8) | inactive: 0 |
| SLFN11 (UniProt Q7Z7L1) | inactive: 0 |
| SLC5A6 (UniProt Q9Y289) | inactive: 0 |
| SNRPA1 (UniProt P09661) | inactive: 0 |
| SLAIN1 (UniProt Q8ND83) | inactive: 0 |
| SET (UniProt Q01105) | inactive: 0 |
| SLC19A1 (UniProt P41440) | inactive: 0 |
| SIL1 (UniProt Q9H173) | inactive: 0 |
| SFRS1 (UniProt Q07955) | inactive: 0 |
| SIDT2 (UniProt Q8NBJ9) | inactive: 0 |
| SLC25A11 (UniProt Q02978) | inactive: 0 |

Reformatted: entries from further up.
Target | dose-dependent thermal stabilisation call
SNX1 (UniProt Q13596) | inactive: 0
SMARCD1 (UniProt Q96GM5) | inactive: 0
SMG6 (UniProt Q86US8) | inactive: 0
SLFN11 (UniProt Q7Z7L1) | inactive: 0
SLC5A6 (UniProt Q9Y289) | inactive: 0
SNRPA1 (UniProt P09661) | inactive: 0
SLAIN1 (UniProt Q8ND83) | inactive: 0
SET (UniProt Q01105) | inactive: 0
SLC19A1 (UniProt P41440) | inactive: 0
SIL1 (UniProt Q9H173) | inactive: 0

More entries.

| Target | dose-dependent thermal stabilisation call |
| --- | --- |
| SNRPB (UniProt P14678) | inactive: 0 |
| SLC45A3 (UniProt Q96JT2) | inactive: 0 |
| SLC12A6 (UniProt Q9UHW9) | inactive: 0 |
| SHPRH (UniProt Q149N8) | inactive: 0 |
| SLC2A1 (UniProt P11166) | inactive: 0 |
| SNRPC (UniProt P09234) | inactive: 0 |
| SGOL1 (UniProt Q5FBB7) | inactive: 0 |
| SFRS14 (UniProt Q8IX01) | inactive: 0 |
| SH3BGRL2 (UniProt Q9UJC5) | inactive: 0 |
| SNX14 (UniProt Q9Y5W7) | inactive: 0 |
| SNRPA (UniProt P09012) | inactive: 0 |
| SFRS5 (UniProt Q13243) | inactive: 0 |
| SGPL1 (UniProt O95470) | inactive: 0 |
| SLC38A7 (UniProt Q9NVC3) | inactive: 0 |
| SFRS2IP (UniProt Q99590) | inactive: 0 |
| SH3BP1 (UniProt Q9Y3L3) | inactive: 0 |
| SLC20A2 (UniProt Q08357) | inactive: 0 |
| SLAIN2 (UniProt Q9P270) | inactive: 0 |
